Patent US7148227B2, “Fungicidal triazolopyrimidines, methods for producing the same, use thereof for combating harmful fungi and agents containing said substances” (BASF Aktiengesellschaft, priority 2002, dated 2006)
Some results were stated once for a whole list of compounds, not compound by compound.

Experiments:
Rhizoctonia solani = experiment: Activity against Rhizoctonia solani on rice (Use Example 4); format: in vivo; conditions: 200 ppm active compound, rice "M-202" 2-leaf stage; untreated plants 100% infected
Alternaria solani = experiment: Activity against early blight of tomato caused by Alternaria solani (Use Example 3, variety Pixie II); format: in vivo; conditions: 200 ppm active compound, tomato "Pixie II" 2-4-leaf stage; untreated plants 100% infected

Question: For CSc1cc(F)c(-c2c(Cl)nc3ncnn3c2NCC(F)(F)F)cc1F [I-8], which “infection (visually determined on leaves)” value (Rhizoctonia solani) is on record?
Answer: ≤ 7%

Question: And the “infection (visually determined on leaf undersides)” value (Alternaria solani)?
Answer: ≤ 7%
